Measured values taken from paper PMC12094083.
Results are given in words; binding and its absence hold for the method and conditions named. In cells and extracts the contact can be indirect. Some entries that bind do so weakly or less than the wild type.

The chains behind the UniProt entries cited, without tags or fusion partners.
UniProt Q8IWV7: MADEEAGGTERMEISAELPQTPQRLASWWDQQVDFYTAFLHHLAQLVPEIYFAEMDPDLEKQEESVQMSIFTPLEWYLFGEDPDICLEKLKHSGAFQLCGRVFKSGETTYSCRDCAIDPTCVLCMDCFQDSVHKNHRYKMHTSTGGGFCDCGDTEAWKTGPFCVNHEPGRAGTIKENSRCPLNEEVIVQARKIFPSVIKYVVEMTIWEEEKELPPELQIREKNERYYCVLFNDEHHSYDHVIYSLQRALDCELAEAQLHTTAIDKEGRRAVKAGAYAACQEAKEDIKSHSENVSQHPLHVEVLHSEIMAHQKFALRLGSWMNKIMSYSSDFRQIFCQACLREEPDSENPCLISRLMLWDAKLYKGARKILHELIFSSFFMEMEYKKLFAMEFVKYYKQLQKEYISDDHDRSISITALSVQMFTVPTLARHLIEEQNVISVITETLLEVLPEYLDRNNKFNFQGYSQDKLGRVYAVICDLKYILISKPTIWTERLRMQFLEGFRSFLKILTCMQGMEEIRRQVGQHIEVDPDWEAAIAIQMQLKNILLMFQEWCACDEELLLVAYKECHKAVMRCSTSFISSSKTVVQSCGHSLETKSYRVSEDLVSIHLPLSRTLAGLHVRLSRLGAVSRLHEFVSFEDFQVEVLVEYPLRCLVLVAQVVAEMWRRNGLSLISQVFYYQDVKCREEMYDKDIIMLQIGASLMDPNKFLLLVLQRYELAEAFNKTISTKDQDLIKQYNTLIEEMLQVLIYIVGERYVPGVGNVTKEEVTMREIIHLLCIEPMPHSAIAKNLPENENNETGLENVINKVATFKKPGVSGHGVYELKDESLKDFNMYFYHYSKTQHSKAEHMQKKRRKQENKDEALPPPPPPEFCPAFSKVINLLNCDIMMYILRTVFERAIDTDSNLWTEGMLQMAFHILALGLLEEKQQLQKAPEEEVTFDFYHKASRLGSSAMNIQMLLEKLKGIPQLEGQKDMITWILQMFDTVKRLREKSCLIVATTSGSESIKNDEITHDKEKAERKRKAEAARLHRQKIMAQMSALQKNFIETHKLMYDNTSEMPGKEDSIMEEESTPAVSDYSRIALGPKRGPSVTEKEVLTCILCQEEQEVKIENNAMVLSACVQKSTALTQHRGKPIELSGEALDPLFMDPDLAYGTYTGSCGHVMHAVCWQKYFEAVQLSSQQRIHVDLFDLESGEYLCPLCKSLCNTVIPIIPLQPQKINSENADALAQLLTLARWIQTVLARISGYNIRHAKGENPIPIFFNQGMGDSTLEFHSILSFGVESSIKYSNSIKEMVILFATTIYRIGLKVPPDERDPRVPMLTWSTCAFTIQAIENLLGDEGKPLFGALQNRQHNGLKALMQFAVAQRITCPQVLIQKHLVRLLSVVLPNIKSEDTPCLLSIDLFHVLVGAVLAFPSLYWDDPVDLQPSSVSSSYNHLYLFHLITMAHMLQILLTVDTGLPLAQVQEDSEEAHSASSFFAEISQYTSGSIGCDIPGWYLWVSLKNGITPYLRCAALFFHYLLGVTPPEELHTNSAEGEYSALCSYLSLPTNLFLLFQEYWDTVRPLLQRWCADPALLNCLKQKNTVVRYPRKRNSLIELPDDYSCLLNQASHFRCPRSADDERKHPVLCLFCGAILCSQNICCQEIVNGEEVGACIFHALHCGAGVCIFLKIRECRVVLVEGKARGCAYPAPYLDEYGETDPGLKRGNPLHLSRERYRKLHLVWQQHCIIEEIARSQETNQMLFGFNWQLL
UniProt Q8IWV8: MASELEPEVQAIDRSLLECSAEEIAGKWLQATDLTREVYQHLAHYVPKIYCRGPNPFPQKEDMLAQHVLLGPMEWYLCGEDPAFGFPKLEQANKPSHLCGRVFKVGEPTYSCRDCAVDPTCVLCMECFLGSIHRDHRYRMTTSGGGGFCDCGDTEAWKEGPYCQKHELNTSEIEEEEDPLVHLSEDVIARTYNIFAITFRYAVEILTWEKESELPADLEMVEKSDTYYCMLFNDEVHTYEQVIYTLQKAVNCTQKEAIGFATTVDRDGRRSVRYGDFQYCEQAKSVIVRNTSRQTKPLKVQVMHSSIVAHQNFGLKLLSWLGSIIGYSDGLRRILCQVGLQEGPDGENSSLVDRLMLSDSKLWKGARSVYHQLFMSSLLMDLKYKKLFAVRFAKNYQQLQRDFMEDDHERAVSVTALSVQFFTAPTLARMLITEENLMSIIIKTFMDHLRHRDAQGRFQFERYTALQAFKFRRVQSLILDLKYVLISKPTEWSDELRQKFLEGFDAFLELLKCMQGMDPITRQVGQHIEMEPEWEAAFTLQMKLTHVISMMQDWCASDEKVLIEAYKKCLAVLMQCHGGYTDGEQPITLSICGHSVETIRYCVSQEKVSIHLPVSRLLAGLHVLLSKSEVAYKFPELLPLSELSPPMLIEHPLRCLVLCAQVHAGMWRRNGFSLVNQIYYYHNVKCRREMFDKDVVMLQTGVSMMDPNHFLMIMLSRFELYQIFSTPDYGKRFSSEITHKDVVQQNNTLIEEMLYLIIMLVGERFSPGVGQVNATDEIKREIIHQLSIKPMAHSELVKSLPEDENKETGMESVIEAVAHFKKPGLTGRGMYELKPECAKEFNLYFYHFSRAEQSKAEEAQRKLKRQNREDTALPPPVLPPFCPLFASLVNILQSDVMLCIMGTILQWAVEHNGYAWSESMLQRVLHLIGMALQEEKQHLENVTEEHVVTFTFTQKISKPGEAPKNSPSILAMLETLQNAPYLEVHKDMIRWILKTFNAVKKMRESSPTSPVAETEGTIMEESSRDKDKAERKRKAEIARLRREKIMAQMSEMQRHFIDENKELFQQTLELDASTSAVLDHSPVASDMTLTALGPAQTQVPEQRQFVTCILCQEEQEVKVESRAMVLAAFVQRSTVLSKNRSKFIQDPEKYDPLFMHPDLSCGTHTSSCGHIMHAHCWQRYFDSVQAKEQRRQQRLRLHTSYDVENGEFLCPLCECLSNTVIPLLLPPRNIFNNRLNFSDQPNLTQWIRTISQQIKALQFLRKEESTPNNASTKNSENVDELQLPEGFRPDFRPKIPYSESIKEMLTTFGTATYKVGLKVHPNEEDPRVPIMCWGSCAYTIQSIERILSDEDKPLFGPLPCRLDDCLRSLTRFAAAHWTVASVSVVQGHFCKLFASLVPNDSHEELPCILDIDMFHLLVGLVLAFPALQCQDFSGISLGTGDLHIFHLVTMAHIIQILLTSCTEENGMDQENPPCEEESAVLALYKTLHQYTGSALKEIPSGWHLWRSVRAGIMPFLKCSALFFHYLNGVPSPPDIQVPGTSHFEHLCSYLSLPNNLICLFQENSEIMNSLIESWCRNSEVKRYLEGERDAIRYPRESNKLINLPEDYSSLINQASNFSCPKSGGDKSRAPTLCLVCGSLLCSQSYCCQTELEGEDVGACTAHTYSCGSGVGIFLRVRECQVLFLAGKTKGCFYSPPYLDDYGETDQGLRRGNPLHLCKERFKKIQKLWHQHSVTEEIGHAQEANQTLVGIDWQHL

Assays:
UBR1 = UBR1 (UniProt Q8IWV7); assay: co-IP; co-immunoprecipitation of SOD2 and UBR1 (Figure S5A); cells and precipitated partner not given
[1] = biological target: UBR2 (human (endogenous in Jurkat)) (UniProt Q8IWV8); assay: co-IP; immunoprecipitation of UBR2 from an isolated cytosolic cell fraction of Jurkat cells; SOD2 found by western blot
[2] = biological target: UBR2 (human (endogenous in Jurkat)) (UniProt Q8IWV8); assay: co-IP; immunoprecipitation of UBR2 from a whole cell lysate of Jurkat cells in a non-denaturing buffer (Frackelton buffer, 1% Triton X-100); SOD2 found by western blot

binding (UBR1): binds
binding [1]: binds
binding [2]: binds
B1: superoxide dismutase 2 (SOD2) (protein, UniProt P04179 25-222)
chain: KHSLPDLPYDYGALEPHINAQIMQLHHSKHHAAYVNNLNVTEEKYQEALAKGDVTAQIALQPALKFNGGGHINHSIFWTNLSPNGGGEPKGELLEAIKRDFGSFDKFKEKLTAASVGVQGSGWGWLGFNKERGHLQIAACPNQDPLQGTTGLIPLLGIDVWEHAYYLQYKNVRPDYLKAIWNVINWENVTERYMACKK
